Results: the supplement of paper PMC10849652
The other results are listed elsewhere or left out.

By UniProt entry, the sequences of proteins in these tests, tags left out. Where a name states a change or a piece, a line headed by the entry shows the natural chain unless it says otherwise.
UniProt Q6DKK2: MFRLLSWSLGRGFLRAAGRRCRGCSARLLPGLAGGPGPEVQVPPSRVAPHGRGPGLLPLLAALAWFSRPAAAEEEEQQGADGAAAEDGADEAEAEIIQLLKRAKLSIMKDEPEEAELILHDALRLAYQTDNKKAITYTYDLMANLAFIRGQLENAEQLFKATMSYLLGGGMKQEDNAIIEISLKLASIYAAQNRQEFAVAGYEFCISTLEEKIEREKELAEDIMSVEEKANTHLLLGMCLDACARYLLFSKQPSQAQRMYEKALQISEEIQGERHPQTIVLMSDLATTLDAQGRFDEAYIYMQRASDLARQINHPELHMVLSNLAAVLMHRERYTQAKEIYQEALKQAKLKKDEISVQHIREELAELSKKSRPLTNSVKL
UniProt Q9BQ61: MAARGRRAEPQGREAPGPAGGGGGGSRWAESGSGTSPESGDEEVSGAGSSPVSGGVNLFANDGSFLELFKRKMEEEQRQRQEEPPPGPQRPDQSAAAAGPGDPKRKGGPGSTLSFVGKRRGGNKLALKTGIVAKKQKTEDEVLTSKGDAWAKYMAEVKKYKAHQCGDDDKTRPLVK
UniProt Q8TBZ6: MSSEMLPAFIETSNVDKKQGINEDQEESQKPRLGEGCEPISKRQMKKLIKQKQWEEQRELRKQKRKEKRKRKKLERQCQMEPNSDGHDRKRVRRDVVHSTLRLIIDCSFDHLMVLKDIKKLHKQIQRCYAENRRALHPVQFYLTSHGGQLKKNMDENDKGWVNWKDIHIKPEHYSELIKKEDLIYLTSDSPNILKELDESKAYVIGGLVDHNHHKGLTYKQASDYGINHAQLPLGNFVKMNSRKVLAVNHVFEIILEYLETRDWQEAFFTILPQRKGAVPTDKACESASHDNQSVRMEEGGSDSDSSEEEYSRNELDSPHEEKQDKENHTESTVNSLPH
UniProt O75648: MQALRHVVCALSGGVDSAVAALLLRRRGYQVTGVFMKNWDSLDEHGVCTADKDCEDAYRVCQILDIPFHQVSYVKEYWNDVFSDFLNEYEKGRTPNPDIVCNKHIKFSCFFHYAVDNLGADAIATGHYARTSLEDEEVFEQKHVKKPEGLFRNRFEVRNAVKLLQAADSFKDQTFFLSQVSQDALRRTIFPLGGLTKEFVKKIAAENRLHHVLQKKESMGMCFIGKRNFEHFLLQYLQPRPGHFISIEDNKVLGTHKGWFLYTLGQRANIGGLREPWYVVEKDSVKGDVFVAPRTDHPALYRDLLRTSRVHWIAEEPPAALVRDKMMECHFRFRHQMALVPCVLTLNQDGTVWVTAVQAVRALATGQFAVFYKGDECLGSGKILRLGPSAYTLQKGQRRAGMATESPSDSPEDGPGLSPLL
UniProt Q8NCE0: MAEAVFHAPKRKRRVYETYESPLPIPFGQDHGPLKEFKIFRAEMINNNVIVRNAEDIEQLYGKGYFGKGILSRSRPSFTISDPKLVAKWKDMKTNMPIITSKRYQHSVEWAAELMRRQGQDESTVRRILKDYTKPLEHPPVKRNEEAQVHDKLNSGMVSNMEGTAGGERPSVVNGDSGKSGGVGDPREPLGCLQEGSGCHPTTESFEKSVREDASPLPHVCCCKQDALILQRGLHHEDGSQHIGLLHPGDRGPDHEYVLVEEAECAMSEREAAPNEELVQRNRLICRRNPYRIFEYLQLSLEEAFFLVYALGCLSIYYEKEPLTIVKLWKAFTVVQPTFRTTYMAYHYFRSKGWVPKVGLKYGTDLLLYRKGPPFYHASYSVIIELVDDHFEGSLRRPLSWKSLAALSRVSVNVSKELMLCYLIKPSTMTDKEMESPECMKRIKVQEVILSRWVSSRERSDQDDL
UniProt Q12931: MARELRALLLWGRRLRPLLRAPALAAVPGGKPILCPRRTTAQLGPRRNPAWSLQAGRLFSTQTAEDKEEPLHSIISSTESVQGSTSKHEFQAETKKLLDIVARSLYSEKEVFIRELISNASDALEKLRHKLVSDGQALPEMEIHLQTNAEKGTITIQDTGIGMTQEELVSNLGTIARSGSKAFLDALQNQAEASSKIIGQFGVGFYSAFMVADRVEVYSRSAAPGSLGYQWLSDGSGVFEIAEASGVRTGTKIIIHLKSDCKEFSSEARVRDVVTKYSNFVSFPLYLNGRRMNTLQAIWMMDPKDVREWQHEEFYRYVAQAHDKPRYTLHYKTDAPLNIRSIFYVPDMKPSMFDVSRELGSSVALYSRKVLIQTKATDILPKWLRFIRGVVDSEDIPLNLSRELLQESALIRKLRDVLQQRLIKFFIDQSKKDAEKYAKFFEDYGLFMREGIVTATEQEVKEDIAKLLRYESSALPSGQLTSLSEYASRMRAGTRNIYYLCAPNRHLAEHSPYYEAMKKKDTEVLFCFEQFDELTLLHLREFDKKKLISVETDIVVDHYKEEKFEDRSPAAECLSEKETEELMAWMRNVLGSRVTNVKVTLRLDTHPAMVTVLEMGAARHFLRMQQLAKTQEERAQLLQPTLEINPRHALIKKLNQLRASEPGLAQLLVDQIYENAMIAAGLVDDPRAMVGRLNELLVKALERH
UniProt Q7L0Y3: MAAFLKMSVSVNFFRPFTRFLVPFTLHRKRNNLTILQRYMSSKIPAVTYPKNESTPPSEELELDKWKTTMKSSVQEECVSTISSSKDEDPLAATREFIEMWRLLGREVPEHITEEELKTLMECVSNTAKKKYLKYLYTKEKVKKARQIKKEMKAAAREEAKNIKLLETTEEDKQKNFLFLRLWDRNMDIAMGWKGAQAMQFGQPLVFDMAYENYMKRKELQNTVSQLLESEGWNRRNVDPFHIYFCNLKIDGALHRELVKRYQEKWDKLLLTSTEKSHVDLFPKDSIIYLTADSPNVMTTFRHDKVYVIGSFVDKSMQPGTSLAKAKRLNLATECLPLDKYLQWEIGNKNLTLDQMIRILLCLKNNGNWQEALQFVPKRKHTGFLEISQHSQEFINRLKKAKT
UniProt P33981: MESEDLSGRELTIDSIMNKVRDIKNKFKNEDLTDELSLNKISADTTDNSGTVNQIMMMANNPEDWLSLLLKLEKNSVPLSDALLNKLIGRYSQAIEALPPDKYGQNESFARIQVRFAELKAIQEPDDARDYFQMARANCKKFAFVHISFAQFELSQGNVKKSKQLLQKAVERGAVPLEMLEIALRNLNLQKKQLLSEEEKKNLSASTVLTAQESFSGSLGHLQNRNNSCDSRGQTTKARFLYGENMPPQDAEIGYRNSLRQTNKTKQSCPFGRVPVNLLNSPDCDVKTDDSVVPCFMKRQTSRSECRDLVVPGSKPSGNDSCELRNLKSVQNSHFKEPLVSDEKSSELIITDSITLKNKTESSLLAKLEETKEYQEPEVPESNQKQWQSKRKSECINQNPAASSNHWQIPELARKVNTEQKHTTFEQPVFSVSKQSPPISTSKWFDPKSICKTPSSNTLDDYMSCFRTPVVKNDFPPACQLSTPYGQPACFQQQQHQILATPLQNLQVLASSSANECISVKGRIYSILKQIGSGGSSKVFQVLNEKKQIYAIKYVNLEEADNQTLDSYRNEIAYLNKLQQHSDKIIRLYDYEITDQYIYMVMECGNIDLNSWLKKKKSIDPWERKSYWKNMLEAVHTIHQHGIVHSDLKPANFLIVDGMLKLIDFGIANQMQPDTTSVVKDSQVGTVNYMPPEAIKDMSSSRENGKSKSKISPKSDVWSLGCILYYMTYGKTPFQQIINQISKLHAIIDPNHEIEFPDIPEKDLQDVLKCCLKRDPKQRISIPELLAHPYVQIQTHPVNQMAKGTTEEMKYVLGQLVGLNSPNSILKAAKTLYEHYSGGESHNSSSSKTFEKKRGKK
UniProt Q8WWH5: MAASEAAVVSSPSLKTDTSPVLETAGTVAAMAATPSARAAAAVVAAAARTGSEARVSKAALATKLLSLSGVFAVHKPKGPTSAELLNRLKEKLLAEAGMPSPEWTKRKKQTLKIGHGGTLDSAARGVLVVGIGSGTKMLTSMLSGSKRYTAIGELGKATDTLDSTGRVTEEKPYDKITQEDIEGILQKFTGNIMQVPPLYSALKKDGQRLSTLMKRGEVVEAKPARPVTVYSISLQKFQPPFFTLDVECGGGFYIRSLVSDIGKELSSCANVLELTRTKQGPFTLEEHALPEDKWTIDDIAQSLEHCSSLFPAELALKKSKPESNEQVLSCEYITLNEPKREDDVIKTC
UniProt Q99614: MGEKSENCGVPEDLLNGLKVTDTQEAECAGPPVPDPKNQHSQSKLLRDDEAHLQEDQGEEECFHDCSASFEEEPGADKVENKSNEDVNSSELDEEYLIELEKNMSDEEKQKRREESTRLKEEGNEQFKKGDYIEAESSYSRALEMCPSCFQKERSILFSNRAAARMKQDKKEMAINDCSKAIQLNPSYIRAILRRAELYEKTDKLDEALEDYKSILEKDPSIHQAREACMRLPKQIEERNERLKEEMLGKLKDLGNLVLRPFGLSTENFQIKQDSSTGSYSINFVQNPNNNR
UniProt Q9UJK0: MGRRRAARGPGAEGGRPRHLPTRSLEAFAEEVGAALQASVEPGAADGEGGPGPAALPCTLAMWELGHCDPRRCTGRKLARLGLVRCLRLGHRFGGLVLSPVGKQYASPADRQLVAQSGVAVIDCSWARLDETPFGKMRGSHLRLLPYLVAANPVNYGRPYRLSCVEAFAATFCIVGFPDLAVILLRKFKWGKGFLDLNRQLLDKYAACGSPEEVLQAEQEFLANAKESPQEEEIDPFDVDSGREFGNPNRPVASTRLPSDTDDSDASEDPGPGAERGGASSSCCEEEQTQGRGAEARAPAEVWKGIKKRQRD
UniProt Q8IUR0, whole entry, looked up: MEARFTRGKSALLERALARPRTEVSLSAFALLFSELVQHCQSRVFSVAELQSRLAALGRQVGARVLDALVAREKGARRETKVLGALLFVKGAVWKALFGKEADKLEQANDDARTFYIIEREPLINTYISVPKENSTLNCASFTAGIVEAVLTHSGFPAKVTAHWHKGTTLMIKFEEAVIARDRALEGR
UniProt Q13114: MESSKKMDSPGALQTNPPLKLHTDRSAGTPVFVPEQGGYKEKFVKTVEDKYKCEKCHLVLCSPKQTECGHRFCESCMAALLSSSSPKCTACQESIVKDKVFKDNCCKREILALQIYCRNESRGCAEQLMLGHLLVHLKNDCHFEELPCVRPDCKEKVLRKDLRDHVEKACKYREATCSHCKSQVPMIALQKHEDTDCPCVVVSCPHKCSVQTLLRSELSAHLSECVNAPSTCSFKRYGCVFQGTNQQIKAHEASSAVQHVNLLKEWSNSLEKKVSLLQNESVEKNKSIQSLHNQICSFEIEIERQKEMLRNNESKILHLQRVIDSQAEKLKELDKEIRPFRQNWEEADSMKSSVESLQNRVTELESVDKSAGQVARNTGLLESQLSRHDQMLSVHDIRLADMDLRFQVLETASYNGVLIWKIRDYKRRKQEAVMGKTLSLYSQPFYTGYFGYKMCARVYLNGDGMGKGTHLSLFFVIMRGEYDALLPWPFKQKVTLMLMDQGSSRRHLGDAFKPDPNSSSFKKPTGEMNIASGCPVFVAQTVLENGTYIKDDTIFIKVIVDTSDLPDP

Columns and labels:
Assay in all cases: log2 fold change, soluble protein after heating vs DMSO (PISA); higher = thermal stabilisation; K562 lysate, 10 uM; active = over 0.2 and 3.5 SD of the protein, either way, in both replicates (recomputed)
ibrutinib = compound: C=CC(=O)N1CCC[C@@H](n2nc(-c3ccc(Oc4ccccc4)cc3)c3c(N)ncnc32)C1 [ibrutinib]
Method in brief: (§1)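 Thermal stability, expressed as log-two fold change relative to solvent controls, is given from duplicates. Crude K562 extract in PBS pH 7.4 with 1 mM MgCl2, at 1 mg/mL protein, was treated with 10 μM compound for 30 min and heated in aliquots for 3 min across 48°C-58°C. After pooling, adjustment to 0.5% NP-40 at 4°C and centrifugation at 21,000xg for 90 min, supernatant protein was measured by TMTpro 16plex LC-MS/MS with channel sums equalised.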

[1] = compound: CC(=O)c1cnc2ccc(-c3cc(Cl)c(O)c(Cl)c3)nc2c1N[C@H]1CC[C@H](CN(C)C)CC1
Method in brief: as §1

ralimetinib = compound: CC(C)(C)Cn1c(N)nc2ccc(-c3[nH]c(C(C)(C)C)nc3-c3ccc(F)cc3)nc21 [ralimetinib]
Method in brief: as §1

[2] = compound: CC(C)(O)CC(=O)NCCn1ccc2ncnc(Nc3ccc(Oc4cccc(C(F)(F)F)c4)c(Cl)c3)c21
Method in brief: as §1

[3] = compound: CC(C)C1=C2N=C(C=C(N2N=C1)NCC3=CC=CC=C3)NCCCCCCN
Method in brief: as §1

[4] = compound: CC1=C(C(CC(=O)N1)C2=CC=C(C=C2)C(F)(F)F)C(=O)NC3=C(C=C4C(=C3)C=NN4)F
Method in brief: as §1

[5] = compound: CC1=C(C2=C(C=C1)C(=O)C3=CC=CC=C3N2CCCN)C
Method in brief: as §1

[6] = compound: CC1=C(C=C(C=C1)NC(=O)C2=CC(=CC=C2)C(C)(C)C#N)NC3=CC4=C(C=C3)N=CN(C4=O)C
Method in brief: as §1

[7] = compound: CC1=C(C=C(C=C1)NC(=O)C2=CC(=CC=C2)N(C)C)NC(=O)C3=CC=C(C=C3)O
Method in brief: as §1

[8] = compound: CC1=CC=C(C=C1)SC2=C3C=C(SC3=CN=C2)C(=O)N
Method in brief: as §1

vemurafenib = compound: CCCS(=O)(=O)Nc1ccc(F)c(C(=O)c2c[nH]c3ncc(-c4ccc(Cl)cc4)cc23)c1F [vemurafenib]
Method in brief: as §1

[9] = compound: CCCS(=O)(=O)Nc1ccc(F)c(C(=O)c2c[nH]c3ncc(Cl)cc23)c1F
Method in brief: as §1

barasertib = compound: CCN(CCCOc1ccc2c(Nc3cc(CC(=O)Nc4cccc(F)c4)[nH]n3)ncnc2c1)CCOP(=O)(O)O [barasertib]
Method in brief: as §1

[10] = compound: CC[C@@H]1C(=O)N(C)c2cnc(Nc3ccc(C(=O)NC4CCN(C)CC4)cc3OC)nc2N1C1CCCC1
Method in brief: as §1

volasertib = compound: CC[C@@H]1C(=O)N(C)c2cnc(Nc3ccc(C(=O)N[C@H]4CC[C@H](N5CCN(CC6CC6)CC5)CC4)cc3OC)nc2N1C(C)C [volasertib]
Method in brief: as §1

[11] = compound: CCn1c(C(=O)N(C2CC2)C2CC2)cc2c3c(ncn3C)c(Nc3cc(C)n(C)n3)nc21
Method in brief: as §1

[12] = compound: CCn1cc(-c2ccnc3[nH]c(-c4cccc(CN(C)C)c4)cc23)c(-c2ccc(NC(=O)N(C)C)cc2)n1
Method in brief: as §1

[13] = compound: CN1CCC(CNc2ccc3ncc(-c4cccc(OC(F)(F)F)c4)n3n2)CC1
Method in brief: as §1

saracatinib = compound: CN1CCN(CCOc2cc(OC3CCOCC3)c3c(Nc4c(Cl)ccc5c4OCO5)ncnc3c2)CC1 [saracatinib]
Method in brief: as §1

sotrastaurin = compound: CN1CCN(c2nc(C3=C(c4c[nH]c5ccccc45)C(=O)NC3=O)c3ccccc3n2)CC1 [sotrastaurin]
Method in brief: as §1

Measured: log2 fold change

TTC19 (UniProt Q6DKK2)
inactive: ibrutinib -0.006 | [1] -0.024 | ralimetinib -0.001 | [2] -0.035 | [3] -0.006 | [4] 0.002 | [5] 0.079 | [6] 0.02 | [7] 0.016 | [8] 0.015 | vemurafenib 0.013 | [9] 0.008 | barasertib 0.047 | [10] 0.052 | volasertib 0.021 | [11] -0.008 | [12] -0.161 | [13] 0.028 | saracatinib 0.034 | sotrastaurin 0.016

TRIR (UniProt Q9BQ61)
inactive: ibrutinib 0.023 | [1] 0.003 | ralimetinib -0.011 | [2] 0.015 | [3] 0.01 | [4] -0.024 | [5] -0.024 | [6] 0.024 | [7] 0.007 | [8] -0.011 | vemurafenib -0.019 | [9] 0 | barasertib -0.044 | [10] 0.043 | volasertib 0.038 | [11] 0.001 | [12] -0.127 | [13] 0.057 | saracatinib 0.021 | sotrastaurin 0.075

TRMT10A (UniProt Q8TBZ6)
inactive: ibrutinib -0.002 | [1] -0.003 | ralimetinib 0.021 | [2] -0.01 | [3] -0.033 | [4] 0.009 | [5] -0.031 | [6] 0.06 | [7] -0.022 | [8] 0.07 | vemurafenib 0.005 | [9] -0.025 | barasertib -0.08 | [10] 0.118 | volasertib -0.014 | [11] -0.005 | [12] -0.027 | [13] 0.029 | saracatinib -0.014 | sotrastaurin 0.006

TRMU (UniProt O75648)
inactive: ibrutinib -0.012 | [1] -0.022 | ralimetinib 0.003 | [2] -0.06 | [3] 0.158 | [4] 0.058 | [5] 0.027 | [6] -0.002 | [7] 0.006 | [8] 0.003 | vemurafenib 0.032 | [9] -0.009 | barasertib 0.059 | [10] 0.024 | volasertib -0.037 | [11] -0.023 | [12] 0.13 | [13] 0.046 | saracatinib 0.036 | sotrastaurin 0.034

TSEN2 (UniProt Q8NCE0)
inactive: ibrutinib -0.001 | [1] 0.057 | ralimetinib 0.122 | [2] -0.049 | [3] -0.11 | [4] 0.017 | [5] -0.066 | [6] -0.002 | [7] 0.085 | [8] 0.021 | vemurafenib -0.033 | [9] 0.034 | barasertib 0.022 | [10] -0.066 | volasertib -0.064 | [11] -0.017 | [12] -0.025 | [13] 0.024 | saracatinib 0.023 | sotrastaurin 0.016

TRAP1 (UniProt Q12931)
inactive: ibrutinib -0.002 | [1] 0.003 | ralimetinib -0.011 | [2] 0.008 | [3] -0.018 | [4] -0.014 | [5] 0.035 | [6] -0.022 | [7] 0.003 | [8] 0.017 | vemurafenib -0.031 | [9] -0.018 | barasertib 0.005 | [10] -0.092 | volasertib -0.005 | [11] 0.019 | [12] 0 | [13] -0.013 | saracatinib 0 | sotrastaurin -0.007

TRMT10C (UniProt Q7L0Y3)
inactive: ibrutinib 0.013 | [1] -0.018 | ralimetinib 0.032 | [2] 0.03 | [3] 0.019 | [4] 0.001 | [5] -0.007 | [6] -0.054 | [7] 0.024 | [8] -0.016 | vemurafenib 0.009 | [9] 0.015 | barasertib -0.042 | [10] -0.056 | volasertib -0.03 | [11] 0.006 | [12] 0.052 | [13] -0.02 | saracatinib -0.018 | sotrastaurin 0.026

TTK (UniProt P33981)
inactive: ibrutinib 0.008 | [1] 0.111 | ralimetinib 0.025 | [2] -0.036 | [3] 0.001 | [4] 0.018 | [5] -0.008 | [6] -0.011 | [7] 0.017 | [8] 0.013 | vemurafenib -0.009 | [9] 0.02 | barasertib 0.06 | [10] 0.089 | volasertib -0.026 | [11] -0.048 | [12] -0.018 | [13] 0.01 | saracatinib -0.037 | sotrastaurin 0.072

Reprinted from above (2 entries):
TSEN2 (UniProt Q8NCE0)
inactive: ibrutinib -0.001 | [1] 0.057 | ralimetinib 0.122 | [2] -0.049 | [3] -0.11 | [4] 0.017 | [5] -0.066 | [6] -0.002 | [7] 0.085 | [8] 0.021 | vemurafenib -0.033 | [9] 0.034 | barasertib 0.022 | [10] -0.066 | volasertib -0.064 | [11] -0.017 | [12] -0.025 | [13] 0.024 | saracatinib 0.023 | sotrastaurin 0.016

TRAP1 (UniProt Q12931)
inactive: ibrutinib -0.002 | [1] 0.003 | ralimetinib -0.011 | [2] 0.008 | [3] -0.018 | [4] -0.014 | [5] 0.035 | [6] -0.022 | [7] 0.003 | [8] 0.017 | vemurafenib -0.031 | [9] -0.018 | barasertib 0.005 | [10] -0.092 | volasertib -0.005 | [11] 0.019 | [12] 0 | [13] -0.013 | saracatinib 0 | sotrastaurin -0.007

(listing goes on)

TRUB1 (UniProt Q8WWH5)
inactive: ibrutinib -0.063 | [1] -0.025 | ralimetinib 0.014 | [2] -0.006 | [3] 0.037 | [4] 0.078 | [5] -0.015 | [6] 0.055 | [7] -0.007 | [8] 0.028 | vemurafenib -0.029 | [9] 0.002 | barasertib 0.029 | [10] -0.015 | volasertib 0.008 | [11] 0.076 | [12] -0.084 | [13] 0.082 | saracatinib 0.022 | sotrastaurin -0.001

TTC1 (UniProt Q99614)
inactive: ibrutinib -0.01 | [1] -0.012 | ralimetinib -0.016 | [2] -0.03 | [3] -0.001 | [4] -0.009 | [5] -0.002 | [6] -0.051 | [7] -0.016 | [8] -0.026 | vemurafenib 0.033 | [9] 0.011 | barasertib -0.004 | [10] 0.058 | volasertib 0.02 | [11] -0.034 | [12] -0.024 | [13] 0.047 | saracatinib 0.008 | sotrastaurin -0.019

TRIM33 (UniProt H0Y612)
inactive: ibrutinib 0.016 | [1] -0.003 | ralimetinib 0.135 | [2] -0.084 | [3] 0.068 | [4] -0.099 | [5] -0.004 | [6] -0.031 | [7] -0.009 | [8] -0.012 | vemurafenib 0.012 | [9] 0.007 | barasertib 0.087 | [10] 0.018 | volasertib 0.012 | [11] 0.093 | [12] -0.017 | [13] 0.051 | saracatinib -0.078 | sotrastaurin 0.006

TSR3 (UniProt Q9UJK0)
inactive: ibrutinib 0.058 | [1] 0.004 | ralimetinib -0.018 | [2] -0.023 | [3] -0.019 | [4] -0.012 | [5] -0.039 | [6] 0.101 | [7] 0.018 | [8] -0.014 | vemurafenib -0.004 | [9] 0.031 | barasertib 0.01 | [10] 0.074 | volasertib -0.015 | [11] -0.021 | [12] -0.012 | [13] 0.011 | saracatinib 0.086 | sotrastaurin -0.044

TRAPPC5 (UniProt Q8IUR0)
inactive: ibrutinib -0.007 | [1] 0.006 | ralimetinib 0.063 | [2] -0.001 | [3] -0.002 | [4] -0.009 | [5] 0.05 | [6] -0.062 | [7] 0.04 | [8] -0.005 | vemurafenib -0.032 | [9] -0.011 | barasertib 0.004 | [10] -0.103 | volasertib -0.006 | [11] 0.063 | [12] -0.006 | [13] -0.003 | saracatinib 0.003 | sotrastaurin 0.05

TRMT112 (UniProt Q9UI30)
inactive: ibrutinib 0.058 | [1] -0.011 | ralimetinib -0.002 | [2] -0.011 | [3] -0.024 | [4] 0.009 | [5] 0.019 | [6] 0.043 | [7] -0.009 | [8] 0.029 | vemurafenib 0.02 | [9] -0.012 | barasertib 0.161 | [10] -0.006 | volasertib 0.024 | [11] 0.025 | [12] 0.035 | [13] -0.048 | saracatinib 0.014 | sotrastaurin -0.117

TRAF3 (UniProt Q13114)
inactive: ibrutinib 0.175 | [1] 0.045 | ralimetinib 0.026 | [2] 0.026 | [3] 0.07 | [4] 0.087 | [5] -0.109 | [6] 0.022 | [7] -0.043 | [8] -0.018 | vemurafenib 0.003 | [9] 0.118 | barasertib 0.107 | [10] 0.013 | volasertib 0.012 | [11] -0.054 | [12] -0.302 | [13] 0.092 | saracatinib 0 | sotrastaurin 0.168
